No constants are given. Whether binding was seen depends on the method and setting. In cells and extracts the contact can be indirect.
Target: T1, RelA:C289Y, chromosomally encoded, in E. coli cell lysate (E. coli (endogenous in E. coli)) (UniProt P0AG20)
T1 sequence: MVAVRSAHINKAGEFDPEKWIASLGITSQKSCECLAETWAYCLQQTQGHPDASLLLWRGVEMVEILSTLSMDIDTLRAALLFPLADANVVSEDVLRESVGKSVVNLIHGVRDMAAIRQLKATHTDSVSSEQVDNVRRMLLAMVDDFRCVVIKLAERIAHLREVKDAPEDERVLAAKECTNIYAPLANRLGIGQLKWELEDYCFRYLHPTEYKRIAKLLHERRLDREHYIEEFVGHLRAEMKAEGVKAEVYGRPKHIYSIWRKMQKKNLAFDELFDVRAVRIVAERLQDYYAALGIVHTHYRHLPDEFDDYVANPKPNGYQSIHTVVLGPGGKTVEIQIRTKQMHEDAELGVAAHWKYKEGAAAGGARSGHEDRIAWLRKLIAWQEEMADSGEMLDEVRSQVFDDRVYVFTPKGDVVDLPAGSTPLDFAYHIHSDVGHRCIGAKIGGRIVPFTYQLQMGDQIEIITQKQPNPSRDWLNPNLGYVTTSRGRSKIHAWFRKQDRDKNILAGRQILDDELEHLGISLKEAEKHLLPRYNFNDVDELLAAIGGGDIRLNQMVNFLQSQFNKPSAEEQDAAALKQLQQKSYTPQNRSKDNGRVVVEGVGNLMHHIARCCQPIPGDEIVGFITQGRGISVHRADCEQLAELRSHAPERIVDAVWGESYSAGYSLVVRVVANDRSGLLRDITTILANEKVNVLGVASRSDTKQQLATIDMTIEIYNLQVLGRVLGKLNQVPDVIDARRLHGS
Experiment: co-IP; lysates of E. coli grown overnight in M9 minimal medium, left untreated; rabbit anti-RelA antibody and Protein A Sepharose, 4 °C; lysis buffer 20 mM Tris pH 8.0, 150 mM KCl, 1 mM MgCl2, 1 mM DTT; Hfq detected by western with anti-Hfq

The chains behind the UniProt entries cited, without tags or fusion partners.
UniProt P0A6X3: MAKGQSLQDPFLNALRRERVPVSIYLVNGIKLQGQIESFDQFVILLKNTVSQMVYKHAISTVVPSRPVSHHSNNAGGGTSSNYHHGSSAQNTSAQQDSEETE

binding: no binding
Substance: Hfq, chromosomally encoded, in E. coli cell lysate (from UniProt P0A6X3 1-102)

— paper PMC8060364
